Data as given in US20020164640A1.
These are yes or no findings as the source states them, for the method shown. Binding seen in cells or lysates may run through a third protein. Some binding calls cover weakened binding; strength is not graded here. For some of these results: Sequences can lack the tags named with a protein.

Amino acid sequences for entries named in this document (tags omitted). A change or cut given only in a name is not applied to a line headed by its entry.
UniProt P51617: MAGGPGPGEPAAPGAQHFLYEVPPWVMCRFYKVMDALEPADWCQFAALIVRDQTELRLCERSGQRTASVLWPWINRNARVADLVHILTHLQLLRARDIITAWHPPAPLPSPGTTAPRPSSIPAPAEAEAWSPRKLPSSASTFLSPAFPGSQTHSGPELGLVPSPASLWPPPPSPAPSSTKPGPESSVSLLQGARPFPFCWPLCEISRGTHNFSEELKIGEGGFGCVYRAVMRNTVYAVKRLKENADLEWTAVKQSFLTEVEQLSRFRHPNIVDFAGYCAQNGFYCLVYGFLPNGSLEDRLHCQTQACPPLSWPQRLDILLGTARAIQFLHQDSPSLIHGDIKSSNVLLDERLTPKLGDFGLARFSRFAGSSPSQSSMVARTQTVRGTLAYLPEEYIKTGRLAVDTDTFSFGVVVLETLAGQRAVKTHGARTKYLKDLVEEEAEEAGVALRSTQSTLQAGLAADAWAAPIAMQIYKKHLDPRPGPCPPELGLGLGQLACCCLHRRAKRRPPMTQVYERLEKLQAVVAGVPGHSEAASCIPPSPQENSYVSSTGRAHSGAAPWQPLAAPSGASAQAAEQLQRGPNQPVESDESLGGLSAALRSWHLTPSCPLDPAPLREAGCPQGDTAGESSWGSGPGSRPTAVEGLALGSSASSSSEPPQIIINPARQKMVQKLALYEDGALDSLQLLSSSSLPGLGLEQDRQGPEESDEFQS
UniProt Q99836: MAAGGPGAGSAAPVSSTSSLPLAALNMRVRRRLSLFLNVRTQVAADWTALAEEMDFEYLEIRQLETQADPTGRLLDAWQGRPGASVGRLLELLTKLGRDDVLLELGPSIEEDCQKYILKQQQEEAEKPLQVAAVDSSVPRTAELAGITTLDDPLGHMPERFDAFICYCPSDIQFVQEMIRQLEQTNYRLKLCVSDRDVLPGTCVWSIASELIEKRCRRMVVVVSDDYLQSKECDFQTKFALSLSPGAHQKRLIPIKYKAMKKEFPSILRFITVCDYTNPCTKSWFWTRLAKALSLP
UniProt P58753: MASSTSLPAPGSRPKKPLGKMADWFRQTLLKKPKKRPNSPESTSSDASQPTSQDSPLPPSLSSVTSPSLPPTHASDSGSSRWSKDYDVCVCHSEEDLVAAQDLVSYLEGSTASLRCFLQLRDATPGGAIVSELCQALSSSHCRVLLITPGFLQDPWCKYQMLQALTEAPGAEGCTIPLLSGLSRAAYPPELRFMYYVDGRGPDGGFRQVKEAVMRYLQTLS

Assays:
IRAK [1] = molecular target: IRAK (UniProt P51617); assay: co-immunoprecipitation from transfected HEK293 cells: anti-AU1 IP, anti-IRAK western blot
IRAK [2] = molecular target: IRAK (UniProt P51617); assay: co-immunoprecipitation from transfected HEK293 cells
myc-IRAK-2 = molecular target: T1, myc-IRAK-2 (UniProt O43187); assay: co-immunoprecipitation from transfected HEK293 cells: anti-HA IP, anti-myc immunoblot
T1 sequence (looked up): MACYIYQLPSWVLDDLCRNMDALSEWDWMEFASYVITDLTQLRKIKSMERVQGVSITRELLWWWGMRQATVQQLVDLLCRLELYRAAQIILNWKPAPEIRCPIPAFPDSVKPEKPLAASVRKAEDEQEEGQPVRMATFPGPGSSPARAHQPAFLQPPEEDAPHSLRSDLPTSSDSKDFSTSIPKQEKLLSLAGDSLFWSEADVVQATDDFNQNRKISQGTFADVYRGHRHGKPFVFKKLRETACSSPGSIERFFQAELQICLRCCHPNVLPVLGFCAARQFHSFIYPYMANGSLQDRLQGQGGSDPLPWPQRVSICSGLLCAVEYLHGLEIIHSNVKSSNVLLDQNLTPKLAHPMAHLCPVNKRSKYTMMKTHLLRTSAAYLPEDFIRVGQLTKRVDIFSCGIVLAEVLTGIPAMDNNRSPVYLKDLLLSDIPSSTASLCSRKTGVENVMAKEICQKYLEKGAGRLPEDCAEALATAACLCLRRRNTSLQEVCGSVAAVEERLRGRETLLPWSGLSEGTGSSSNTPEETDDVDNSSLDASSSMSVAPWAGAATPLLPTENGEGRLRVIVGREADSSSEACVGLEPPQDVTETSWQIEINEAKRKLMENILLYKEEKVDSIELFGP

[3] = molecular target: full length labelled MyD88 (AU-1-MyD88) (UniProt Q99836); assay: co-immunoprecipitation from transfected HEK293 cells: anti-AU1 IP, anti-HA immunoblot

Substance	binding (IRAK [1])	binding (IRAK [2])	binding (myc-IRAK-2)	binding [3]
full length labelled MyD88 (AU-1-MyD88) (from UniProt Q99836 1-296)	binds	binds		
full-length labelled MAL-1 (HA-MAL-1) (from UniProt P58753 1-215)			binds	binds
